Results on 37 targets are retold here after the supplement of paper PMC7666118.

Amino acid sequences for entries named in this document (tags omitted). A change or cut given only in a name is not applied to a line headed by its entry.
UniProt P54105: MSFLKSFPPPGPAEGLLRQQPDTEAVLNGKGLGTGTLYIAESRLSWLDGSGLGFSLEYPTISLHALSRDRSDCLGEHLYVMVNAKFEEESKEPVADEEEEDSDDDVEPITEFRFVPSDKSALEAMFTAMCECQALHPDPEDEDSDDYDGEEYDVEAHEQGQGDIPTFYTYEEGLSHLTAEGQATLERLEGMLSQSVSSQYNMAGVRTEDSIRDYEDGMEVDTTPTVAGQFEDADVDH
UniProt Q6YP21: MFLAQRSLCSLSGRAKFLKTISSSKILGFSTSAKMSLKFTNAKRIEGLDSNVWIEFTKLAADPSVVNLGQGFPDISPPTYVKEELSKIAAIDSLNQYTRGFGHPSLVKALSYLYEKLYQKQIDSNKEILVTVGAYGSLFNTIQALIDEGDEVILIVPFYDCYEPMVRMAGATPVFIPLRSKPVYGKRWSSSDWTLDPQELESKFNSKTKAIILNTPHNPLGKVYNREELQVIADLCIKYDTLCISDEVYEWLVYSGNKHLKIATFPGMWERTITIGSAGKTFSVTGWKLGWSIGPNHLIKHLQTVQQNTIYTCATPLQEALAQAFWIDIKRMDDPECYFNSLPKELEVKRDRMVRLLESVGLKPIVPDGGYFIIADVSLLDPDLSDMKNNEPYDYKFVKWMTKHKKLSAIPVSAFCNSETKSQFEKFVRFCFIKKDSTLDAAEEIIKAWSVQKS
UniProt O00748: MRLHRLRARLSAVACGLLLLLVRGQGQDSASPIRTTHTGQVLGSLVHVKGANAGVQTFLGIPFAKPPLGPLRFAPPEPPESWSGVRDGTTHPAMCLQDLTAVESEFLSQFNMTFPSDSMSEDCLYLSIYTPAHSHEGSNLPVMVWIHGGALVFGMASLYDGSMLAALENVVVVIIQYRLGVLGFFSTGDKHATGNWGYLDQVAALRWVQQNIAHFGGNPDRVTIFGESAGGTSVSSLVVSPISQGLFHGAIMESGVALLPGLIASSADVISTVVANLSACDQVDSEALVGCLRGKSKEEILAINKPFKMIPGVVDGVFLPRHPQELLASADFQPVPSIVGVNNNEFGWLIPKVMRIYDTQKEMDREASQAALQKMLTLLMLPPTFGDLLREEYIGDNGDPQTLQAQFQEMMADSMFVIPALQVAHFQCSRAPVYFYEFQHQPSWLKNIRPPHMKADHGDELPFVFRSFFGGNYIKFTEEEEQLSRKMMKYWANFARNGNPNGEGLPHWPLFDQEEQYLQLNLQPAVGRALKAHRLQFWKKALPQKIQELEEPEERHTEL
UniProt Q9H0G5: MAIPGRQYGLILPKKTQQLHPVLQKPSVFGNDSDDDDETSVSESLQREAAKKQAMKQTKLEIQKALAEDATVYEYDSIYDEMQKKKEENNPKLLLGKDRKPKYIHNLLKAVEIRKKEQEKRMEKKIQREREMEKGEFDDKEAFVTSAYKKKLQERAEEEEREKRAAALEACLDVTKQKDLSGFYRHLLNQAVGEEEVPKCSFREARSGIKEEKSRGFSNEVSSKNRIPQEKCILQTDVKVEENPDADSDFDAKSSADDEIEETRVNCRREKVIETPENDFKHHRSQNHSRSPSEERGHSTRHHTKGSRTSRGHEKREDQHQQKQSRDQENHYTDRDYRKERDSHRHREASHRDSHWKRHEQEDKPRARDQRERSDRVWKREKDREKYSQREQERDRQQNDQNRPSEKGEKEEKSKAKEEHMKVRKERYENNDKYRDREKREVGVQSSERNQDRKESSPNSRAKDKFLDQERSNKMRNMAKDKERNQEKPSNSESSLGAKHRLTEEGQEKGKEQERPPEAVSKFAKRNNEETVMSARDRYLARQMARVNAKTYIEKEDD
UniProt Q96KA5: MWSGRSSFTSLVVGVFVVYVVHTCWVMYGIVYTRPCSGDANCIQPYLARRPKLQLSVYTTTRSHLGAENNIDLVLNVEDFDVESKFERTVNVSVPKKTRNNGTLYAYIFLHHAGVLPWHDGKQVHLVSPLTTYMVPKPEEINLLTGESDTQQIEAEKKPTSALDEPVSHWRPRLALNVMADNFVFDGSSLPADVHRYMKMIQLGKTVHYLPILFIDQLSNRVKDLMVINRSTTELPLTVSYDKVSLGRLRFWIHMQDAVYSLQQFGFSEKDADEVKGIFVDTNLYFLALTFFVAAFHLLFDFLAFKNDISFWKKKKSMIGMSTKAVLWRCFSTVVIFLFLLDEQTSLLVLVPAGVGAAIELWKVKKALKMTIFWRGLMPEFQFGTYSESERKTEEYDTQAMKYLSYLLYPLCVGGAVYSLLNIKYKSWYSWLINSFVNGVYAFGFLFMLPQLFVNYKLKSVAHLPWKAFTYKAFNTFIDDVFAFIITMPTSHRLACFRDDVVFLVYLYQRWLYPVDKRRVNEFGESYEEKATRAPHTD
UniProt Q96ES7: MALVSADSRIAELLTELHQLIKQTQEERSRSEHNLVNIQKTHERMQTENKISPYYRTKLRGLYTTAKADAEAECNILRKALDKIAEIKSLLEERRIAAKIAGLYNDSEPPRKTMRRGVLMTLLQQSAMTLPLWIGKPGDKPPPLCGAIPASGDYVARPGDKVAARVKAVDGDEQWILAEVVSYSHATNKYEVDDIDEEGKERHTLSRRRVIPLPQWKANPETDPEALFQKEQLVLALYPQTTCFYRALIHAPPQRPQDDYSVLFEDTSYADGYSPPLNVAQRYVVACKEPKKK
UniProt Q8WUD6: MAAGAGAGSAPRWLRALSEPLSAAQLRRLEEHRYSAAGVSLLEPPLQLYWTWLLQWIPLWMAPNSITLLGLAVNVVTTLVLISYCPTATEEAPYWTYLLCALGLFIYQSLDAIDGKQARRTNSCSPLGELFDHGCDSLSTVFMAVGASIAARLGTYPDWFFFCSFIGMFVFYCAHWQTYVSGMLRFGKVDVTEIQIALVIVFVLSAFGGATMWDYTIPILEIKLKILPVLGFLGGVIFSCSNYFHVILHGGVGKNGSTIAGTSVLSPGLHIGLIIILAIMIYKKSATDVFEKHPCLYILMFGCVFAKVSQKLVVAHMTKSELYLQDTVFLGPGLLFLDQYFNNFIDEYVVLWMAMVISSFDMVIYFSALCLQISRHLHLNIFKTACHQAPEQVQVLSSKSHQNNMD
UniProt Q6IPU0: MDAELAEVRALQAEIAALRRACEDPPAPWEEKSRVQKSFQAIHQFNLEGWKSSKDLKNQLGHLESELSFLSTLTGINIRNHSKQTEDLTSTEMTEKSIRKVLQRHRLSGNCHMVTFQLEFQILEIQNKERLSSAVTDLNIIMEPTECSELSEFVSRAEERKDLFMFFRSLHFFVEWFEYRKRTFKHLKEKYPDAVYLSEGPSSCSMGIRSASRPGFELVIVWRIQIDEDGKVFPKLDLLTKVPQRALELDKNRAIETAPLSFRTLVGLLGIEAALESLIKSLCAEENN
UniProt Q8N954: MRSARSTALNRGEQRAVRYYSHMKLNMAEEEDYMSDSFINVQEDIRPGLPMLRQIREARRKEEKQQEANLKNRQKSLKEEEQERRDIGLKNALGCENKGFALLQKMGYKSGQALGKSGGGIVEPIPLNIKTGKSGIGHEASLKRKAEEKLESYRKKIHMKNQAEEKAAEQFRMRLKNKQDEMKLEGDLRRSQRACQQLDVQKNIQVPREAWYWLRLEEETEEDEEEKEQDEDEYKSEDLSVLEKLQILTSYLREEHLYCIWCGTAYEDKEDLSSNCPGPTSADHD
UniProt Q8NFW8: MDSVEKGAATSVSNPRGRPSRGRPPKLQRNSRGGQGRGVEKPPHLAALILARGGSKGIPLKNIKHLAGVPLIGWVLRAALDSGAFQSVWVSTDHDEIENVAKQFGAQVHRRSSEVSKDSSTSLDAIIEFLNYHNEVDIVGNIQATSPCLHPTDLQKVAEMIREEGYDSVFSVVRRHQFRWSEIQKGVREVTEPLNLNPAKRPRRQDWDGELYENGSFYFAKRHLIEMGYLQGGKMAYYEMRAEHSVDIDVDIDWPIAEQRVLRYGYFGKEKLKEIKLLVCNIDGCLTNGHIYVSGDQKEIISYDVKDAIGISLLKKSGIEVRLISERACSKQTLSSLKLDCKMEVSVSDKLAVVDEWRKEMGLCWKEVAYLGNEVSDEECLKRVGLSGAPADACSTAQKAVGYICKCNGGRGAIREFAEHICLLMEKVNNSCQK
UniProt P26374: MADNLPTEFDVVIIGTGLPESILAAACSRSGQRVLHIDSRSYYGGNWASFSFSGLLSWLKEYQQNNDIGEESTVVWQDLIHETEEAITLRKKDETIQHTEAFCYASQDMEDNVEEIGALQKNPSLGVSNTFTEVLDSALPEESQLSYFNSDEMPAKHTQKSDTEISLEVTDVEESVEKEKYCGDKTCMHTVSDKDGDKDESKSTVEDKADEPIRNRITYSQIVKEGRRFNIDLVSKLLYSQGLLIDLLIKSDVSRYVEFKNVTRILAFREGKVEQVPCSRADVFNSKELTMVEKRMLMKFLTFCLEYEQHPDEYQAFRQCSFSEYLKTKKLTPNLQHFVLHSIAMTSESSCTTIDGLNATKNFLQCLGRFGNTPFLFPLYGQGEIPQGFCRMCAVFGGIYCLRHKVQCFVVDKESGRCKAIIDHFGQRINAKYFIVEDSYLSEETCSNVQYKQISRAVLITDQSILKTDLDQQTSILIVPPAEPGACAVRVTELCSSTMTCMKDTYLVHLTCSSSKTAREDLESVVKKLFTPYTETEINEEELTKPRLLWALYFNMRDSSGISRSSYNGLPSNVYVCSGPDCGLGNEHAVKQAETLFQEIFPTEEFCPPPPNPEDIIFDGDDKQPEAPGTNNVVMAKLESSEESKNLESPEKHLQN
UniProt Q96F63: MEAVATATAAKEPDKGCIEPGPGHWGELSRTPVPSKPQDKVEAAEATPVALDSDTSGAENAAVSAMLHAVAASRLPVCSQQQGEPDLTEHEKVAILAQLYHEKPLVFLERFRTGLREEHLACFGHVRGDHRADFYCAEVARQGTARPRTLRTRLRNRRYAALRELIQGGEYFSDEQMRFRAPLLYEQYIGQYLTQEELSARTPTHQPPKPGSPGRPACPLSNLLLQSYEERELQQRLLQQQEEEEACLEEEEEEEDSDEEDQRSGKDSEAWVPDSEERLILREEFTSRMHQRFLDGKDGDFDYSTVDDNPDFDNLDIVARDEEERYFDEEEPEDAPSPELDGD
UniProt Q9Y592: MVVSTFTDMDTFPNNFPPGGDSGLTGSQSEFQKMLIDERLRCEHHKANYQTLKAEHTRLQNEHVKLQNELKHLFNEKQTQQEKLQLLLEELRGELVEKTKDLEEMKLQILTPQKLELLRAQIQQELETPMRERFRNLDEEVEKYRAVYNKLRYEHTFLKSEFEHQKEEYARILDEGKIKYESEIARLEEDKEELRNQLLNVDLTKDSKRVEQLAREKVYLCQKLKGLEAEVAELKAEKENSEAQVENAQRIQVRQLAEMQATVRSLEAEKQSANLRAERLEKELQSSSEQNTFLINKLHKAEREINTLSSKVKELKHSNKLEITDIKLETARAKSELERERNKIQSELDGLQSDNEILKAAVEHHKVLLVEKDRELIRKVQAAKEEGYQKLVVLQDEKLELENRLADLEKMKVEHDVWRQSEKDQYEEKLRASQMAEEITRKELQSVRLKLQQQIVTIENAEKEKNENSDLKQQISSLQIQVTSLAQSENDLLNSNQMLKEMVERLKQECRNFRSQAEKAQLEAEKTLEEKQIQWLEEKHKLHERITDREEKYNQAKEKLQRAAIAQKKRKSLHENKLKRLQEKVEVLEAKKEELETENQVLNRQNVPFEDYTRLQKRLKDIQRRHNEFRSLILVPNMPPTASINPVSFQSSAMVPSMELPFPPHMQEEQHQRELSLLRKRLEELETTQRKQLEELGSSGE
UniProt Q9ULM6, whole entry: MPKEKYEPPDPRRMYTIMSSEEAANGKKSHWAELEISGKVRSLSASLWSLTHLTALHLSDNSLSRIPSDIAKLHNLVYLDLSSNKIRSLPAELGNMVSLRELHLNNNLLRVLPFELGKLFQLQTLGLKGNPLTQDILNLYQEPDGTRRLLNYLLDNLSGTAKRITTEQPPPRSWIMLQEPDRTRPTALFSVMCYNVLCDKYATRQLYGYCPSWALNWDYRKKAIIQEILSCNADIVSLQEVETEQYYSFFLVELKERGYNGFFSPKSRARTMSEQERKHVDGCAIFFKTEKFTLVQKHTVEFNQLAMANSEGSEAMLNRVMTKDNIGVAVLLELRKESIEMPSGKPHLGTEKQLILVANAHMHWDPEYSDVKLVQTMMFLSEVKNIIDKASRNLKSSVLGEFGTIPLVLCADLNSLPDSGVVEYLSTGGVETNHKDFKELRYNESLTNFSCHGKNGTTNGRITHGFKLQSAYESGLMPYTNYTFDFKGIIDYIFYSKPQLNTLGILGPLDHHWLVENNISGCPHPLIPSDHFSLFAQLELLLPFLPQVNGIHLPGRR
UniProt Q7L2Z9: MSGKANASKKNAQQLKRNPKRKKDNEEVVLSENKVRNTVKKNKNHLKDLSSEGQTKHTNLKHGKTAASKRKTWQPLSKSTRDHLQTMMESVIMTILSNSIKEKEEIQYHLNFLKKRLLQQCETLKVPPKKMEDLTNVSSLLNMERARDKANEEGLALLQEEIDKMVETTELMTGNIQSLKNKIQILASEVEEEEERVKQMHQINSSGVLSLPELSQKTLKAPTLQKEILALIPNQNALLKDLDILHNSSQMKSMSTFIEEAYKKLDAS

The list shows a part of the results.

Compound in the assay: COc1ccc(Cn2ccc3ccc(C(=O)NO)cc32)cc1
The assay can be described thus: dose-dependent thermal stabilisation call (2D-TPP, DLPTP, 10% FDR) (binary (1 = stabilised)); higher = stabilised by the compound. To be noted: system: HL-60 intact cells; concentration range 0.04-10 µM.
For CEPT1 (UniProt Q9Y6K0), the “dose-dependent thermal stabilisation call” value was inactive: 0.

CLNS1A (UniProt P54105): the “dose-dependent thermal stabilisation call” value is inactive: 0.

As to CCBL2 (UniProt Q6YP21), the “dose-dependent thermal stabilisation call” value is inactive: 0.

CENPJ (UniProt Q9HC77): the “dose-dependent thermal stabilisation call” value was inactive: 0.

As for CES2 (UniProt O00748), the “dose-dependent thermal stabilisation call” value was inactive: 0.

On to CCDC55 (UniProt Q9H0G5), for which the “dose-dependent thermal stabilisation call” value is inactive: 0.

Consider COMMD1 (UniProt Q8N668), for which the “dose-dependent thermal stabilisation call” value is inactive: 0.

On to CLPTM1L (UniProt Q96KA5), for which the “dose-dependent thermal stabilisation call” value is inactive: 0.

With CLP1 (UniProt Q92989), the “dose-dependent thermal stabilisation call” value was inactive: 0.

Consider COG4 (UniProt Q9H9E3), for which the “dose-dependent thermal stabilisation call” value is inactive: 0.

As for CHD1 (UniProt O14646), the “dose-dependent thermal stabilisation call” value was inactive: 0.

Turning to CDK7 (UniProt P50613), the “dose-dependent thermal stabilisation call” value was inactive: 0.

For CNPY2 (UniProt Q9Y2B0), the “dose-dependent thermal stabilisation call” value is inactive: 0.

As for CCDC101 (UniProt Q96ES7), the “dose-dependent thermal stabilisation call” value is inactive: 0.

Turning to CENPL (UniProt Q8N0S6), the “dose-dependent thermal stabilisation call” value was inactive: 0.

Take CHMP1A (UniProt Q9HD42): the “dose-dependent thermal stabilisation call” value was inactive: 0.

In the case of CHPT1 (UniProt Q8WUD6), the “dose-dependent thermal stabilisation call” value is inactive: 0.

As to CLTB (UniProt P09497), the “dose-dependent thermal stabilisation call” value was inactive: 0.

As to CENPP (UniProt Q6IPU0), the “dose-dependent thermal stabilisation call” value was inactive: 0.

Take CCDC75 (UniProt Q8N954): the “dose-dependent thermal stabilisation call” value is inactive: 0.

For CEP170 (UniProt Q5SW79), the “dose-dependent thermal stabilisation call” value is inactive: 0.

For CMAS (UniProt Q8NFW8), the “dose-dependent thermal stabilisation call” value was inactive: 0.

Regarding CMIP (UniProt Q8IY22), the “dose-dependent thermal stabilisation call” value is inactive: 0.

As to CCBL1 (UniProt Q16773), the “dose-dependent thermal stabilisation call” value was inactive: 0.

As to CHML (UniProt P26374), the “dose-dependent thermal stabilisation call” value is inactive: 0.

On to CLEC5A (UniProt Q9NY25), for which the “dose-dependent thermal stabilisation call” value was inactive: 0.

With CD84 (UniProt Q9UIB8), the “dose-dependent thermal stabilisation call” value is inactive: 0.

On to CCDC97 (UniProt Q96F63), for which the “dose-dependent thermal stabilisation call” value is inactive: 0.

As for CCNB1 (UniProt P14635), the “dose-dependent thermal stabilisation call” value was inactive: 0.

For CDKN2AIP (UniProt Q9NXV6), the “dose-dependent thermal stabilisation call” value is inactive: 0.

In the case of CCDC41 (UniProt Q9Y592), the “dose-dependent thermal stabilisation call” value was inactive: 0.

Turning to CNOT6 (UniProt Q9ULM6), the “dose-dependent thermal stabilisation call” value is inactive: 0.

As for CENPQ (UniProt Q7L2Z9), the “dose-dependent thermal stabilisation call” value is inactive: 0.

On to CEP250 (UniProt Q9BV73), for which the “dose-dependent thermal stabilisation call” value is inactive: 0.

With CCDC22 (UniProt O60826), the “dose-dependent thermal stabilisation call” value was inactive: 0.

In the case of CDK5RAP1 (UniProt Q96SZ6), the “dose-dependent thermal stabilisation call” value was inactive: 0.

As for CLK2 (UniProt P49760), the “dose-dependent thermal stabilisation call” value was inactive: 0.
